Values from PubChem BioAssay AID504791 (Drosophila RNAi Screening Center, 2011)
Assay: 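Genes whose knock-down strengthens or weakens small-RNA reporter silencing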 (primary screen). Cell system: Drosophila S2-derived reporter cells. Knock-down reagent: long dsRNA against Drosophila genes, about 150-250 ng dsRNA per well (siRNA assay); about 80-120 ng (miRNA assay). Duration: about 5 days (siRNA assay); about 4 days (miRNA assay). Conditions: copper sulfate induction of reporters: 25 µM (siRNA assay); 200 mM stated (miRNA assay), 1-2 days before reading. Measured: 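Dual luciferase assay: Renilla to firefly signal ratio in each well, scaled to the mean ratio of its plate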. Scale: siRNA reporter hit score: higher = 3 marks a strong hit with raised ratio; -3 a strong hit with lowered ratio. Call rule: 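First-pass picks had plate-scaled ratios over 1.5 for the siRNA assay, over 1.6 for the miRNA assay, or under 0.6; two distinct dsRNAs had to score alike on retest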.
The screen tested about 23,000 reagents; this is a random part of those that have a named target and a result. Over the whole deposit, 199 (0.86%) were called active. 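Plate-scaled ratios behind the calls are not deposited; printed light signals are raw; many rows marked increased or decreased are still called inactive.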 A plus sign joins genes that one reagent is predicted to hit. Reagent sequences are not shown.

no.	target	DRSC id	siRNA reporter hit score	stable siRNA reporter change	miRNA reporter change	stable assay Renilla, run 1 (luminescence)	stable assay firefly, run 1 (luminescence)	call
1	CDK2AP1	DRSC19800				6492	4.12e5	inactive
2	Cka	DRSC03476				8257	4.99e5	inactive
3	Cka	DRSC22858		reporter ratio raised past the hit cutoff		5276	3.11e5	active
4	Phae2	DRSC02555				6740	4.39e5	inactive
5	Galphaq	DRSC07432				9539	4.52e5	inactive
6	Srlp	DRSC15890	3		reporter ratio raised past the hit cutoff	4971	3.44e5	inactive
7	CG31223	DRSC15115				15462	4.13e5	inactive
8	CG13385	DRSC02259				6662	3.29e5	inactive
9	CG7191	DRSC03022				8370	6.35e5	inactive
10	TwdlY	DRSC19153				4028	3.77e5	inactive
11	CG12910	DRSC06225				9622	5.67e5	inactive
12	TAF1C-like	DRSC04073				21064	6.24e5	inactive
13	Argl + CG9515	DRSC03243				19678	6.63e5	inactive
14	Argl + CG9515	DRSC03245				6866	3.73e5	inactive
15	Or24a	DRSC00768		reporter ratio lowered past the hit cutoff		7616	7.07e5	inactive
16	CstF64	DRSC16616				9186	4.88e5	inactive
17	mop	DRSC11065				7263	2.96e5	inactive
18	CG31627	DRSC22143				9200	5.63e5	inactive
19	CG10333	DRSC02036				21943	1.34e6	inactive
20	CG3119	DRSC00569				7955	4.80e5	inactive
21	trpl	DRSC06728				6943	4.85e5	inactive
22	trpl	DRSC06729		reporter ratio lowered past the hit cutoff		2811	4.49e5	inactive
23	PVRAP	DRSC09966				5367	3.64e5	inactive
24	PVRAP	DRSC10577				7078	6.13e5	inactive
25	term	DRSC21730				8119	4.03e5	inactive
26	Ltn1	DRSC11056				10130	4.76e5	inactive
27	Ltn1	DRSC11058				6388	3.87e5	inactive
28	Mtpbeta	DRSC04663				19002	1.03e6	inactive
29	lush	DRSC11364				7710	4.58e5	inactive
30	CG13202	DRSC06326				5467	3.60e5	inactive
31	Idgf5	DRSC06919				8894	3.00e5	inactive
32	CG18477 + CG31780	DRSC01955				6722	3.54e5	inactive
33	CG14086	DRSC10090				6858	3.96e5	inactive
34	Six4	DRSC11881				6555	4.19e5	inactive
35	Cpr92F	DRSC15819				7699	4.50e5	inactive
36	Prosbeta5R1	DRSC04581				7182	4.31e5	inactive
37	Tis11	DRSC20293		reporter ratio raised past the hit cutoff		7543	2.63e5	inactive
38	Tis11	DRSC23110		reporter ratio raised past the hit cutoff		1504	67280	inactive
39	CG15358	DRSC00388				7946	4.36e5	inactive
40	CG9095	DRSC20150				4143	3.42e5	inactive
41	HisRS	DRSC19986				4919	4.50e5	inactive
42	CG10102 (retired record)	DRSC05963				8698	4.88e5	inactive
43	Alr	DRSC19469				6055	5.74e5	inactive
44	CG8746	DRSC07257				7683	3.19e5	inactive
45	CG14642	DRSC12228				8359	2.90e5	inactive
46	Ugt303A1	DRSC15641				5535	3.13e5	inactive
47	CG9698	DRSC16539				6676	4.55e5	inactive
48	Rsod	DRSC15424				6471	4.20e5	inactive
49	key	DRSC04285				70543	2.23e6	inactive
50	Dolk	DRSC07143				5687	3.11e5	inactive
51	lncRNA:CR42862	DRSC08348				7550	4.21e5	inactive
52	Cyp28d1	DRSC03298				13700	3.37e5	inactive
53	Cyp28d1	DRSC21331				8779	4.96e5	inactive
54	phtf	DRSC05023				7586	1.54e6	inactive
55	Pex23	DRSC10323				8762	3.35e5	inactive
56	Pex23	DRSC10645				7164	3.96e5	inactive
57	CG31778	DRSC00283				23998	1.92e5	inactive
